System: blood-brain barrier
Assay: Uptake of radiolabelled substances of different molecular weights into the brain (Table I)
Conditions: mice, 10 minutes, mean ± s.d.
Description: The animals were euthanatized 10 minutes after the co-administration and the radioactivity present in brain was measured as described previously for ^14 C sucrose.

## CCC[C@@H]1C[C@@H](C(=O)N[C@@H]([C@H]2O[C@H](SC)[C@H](O)[C@@H](O)[C@H]2O)[C@H](C)Cl)N(C)C1 [^14 C-Clindamycin, Clindamycin]
Labelled molecule i.v. with 1 μg permeabilizer A-7 (footnote *)
  % Injected Dose, + A-7 (dose 1 μg): 0.140 ± 0.082 % Injected Dose
Labelled molecule i.v. with saline
  % Injected Dose, Control: 0.085 ± 0.051 % Injected Dose

From patent US5686416A, “Increasing blood-brain barrier permeability with permeabilizer peptides” (priority 1993, dated 1997)
